Some of the results follow. Shown are side measurements of this screen, not its main read-out; they come without a call. The list favours compounds with an active or inconclusive main result. The note in brackets gives the kind of curve behind each potency; many fits are weak.
Assay: qHTS Assay for Lipid Storage Modulators in Drosophila S3 Cells;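 for cell number change: cells counted by Cell Tracker Red CMTPX staining in the red channel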
Conditions: BODIPY lipid droplet fluorescence, 18-24 h; for cell number change: measured here: cell count max response, cells fed with added oleic acid
Summary of the method: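 Drosophila S3 cells got compounds at several concentrations plus oleic acid (400 uM solution). Laser-scanning cytometry with 488 nm excitation read lipid droplets at 500-530 nm and cells at 575-640 nm. Percent activity was relative to 20 uM Triacsin C.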

[1] = measured here: cell number channel AC50, cells fed with added oleic acid
[2] = measured here: lipid fluorescence (Fed channel) AC50, cells fed with added oleic acid

## Fc1cc(F)c(C2SCCN2C(=S)Nc2cccc(C(F)(F)F)c2)c(F)c1 (stereo not drawn)
  cell number change: -31.1%
[1]
  AC50: 9.2 µM [falling, partial curve, poor fit]
[2]
  AC50: 14.6 µM [falling, partial curve, poor fit]

## Cc1cccc(C)c1OCc1nnc(SCC(=O)NCCc2ccccc2)o1
  cell number change: -21.3%
[2]
  AC50: 32.6 µM [falling, single point]

## Cc1c2c(n3c(nc4ccccc43)c1C#N)N(CCCN(C)C)CC2
  cell number change: -6.7%

## Cc1ccsc1C(=O)N/N=C/C=C/c1ccccc1[N+](=O)[O-]
[1]
  AC50: 0.092 µM [rising, full curve, poor fit]

## O=C(Nc1cc([N+](=O)[O-])ccc1N1CCCC1)c1ccccc1
  cell number change: 8.92%
[2]
  AC50: 0.517 µM [rising, single point]

## COc1ccc(CN2CCn3ncc(C(=O)Nc4cc(C)cc(C)c4)c3C2=O)cc1
  cell number change: -32.8%
[1]
  AC50: 8.2 µM [falling, partial curve, poor fit]
[2]
  AC50: 11.6 µM [falling, partial curve]

## COC(=O)c1ccc2c(=O)n(Cc3ccc(C(=O)NCCCN4CCC(C)CC4)cc3)c(=S)[nH]c2c1
  cell number change: -15.6%
[2]
  AC50: 2.59 µM [falling, partial curve, poor fit]

## CCC1C/C(=C/c2ccco2)C(=O)/C(=C/c2ccco2)C1 (stereo not drawn)
  cell number change: -9.39%
[2]
  AC50: 18.4 µM [falling, partial curve, poor fit]

## CCOC(=O)N1CCN(C(=O)C2CCN(Cc3ccc(O)c(OCC)c3)CC2)CC1
  cell number change: -12.4%

## Cc1cc(C)nc(SCC(=O)Nc2ncc(Cc3cccc(Cl)c3Cl)s2)n1
[1]
  AC50: 0.164 µM [rising, full curve, poor fit]

## Cc1cccc(NC(=O)C2CCN(C(=O)c3ccc(F)cc3)CC2)n1
[1]
  AC50: 2.31 µM [rising, single point]

## CCn1cc(C(=O)NCCc2ccc(C)cc2)c(=O)c2cc(S(=O)(=O)N(C)C)ccc21
  cell number change: 53.2%
[1]
  AC50: 1.16 µM [rising, full curve]

## c1ccc(CNc2ncnc3scc(-c4cccs4)c23)nc1
  cell number change: -14.9%
[2]
  AC50: 29.1 µM [falling, single point]

## O=C1CC(NS(=O)(=O)c2cccs2)CN1c1cccc(F)c1 (stereo not drawn)
  cell number change: 20%
[2]
  AC50: 6.51 µM [falling, single point]

## CN1C(=O)CC(=O)N(C)c2cc(S(=O)(=O)N(C)Cc3ccccc3)ccc21
  cell number change: -73.6%
[1]
  AC50: 29.1 µM [falling, single point]

## O=C1CN(CC(=O)Nc2ccc(Cl)cc2)CCN1
[1]
  AC50: 1.46 µM [falling, full curve]
[2]
  AC50: 1.84 µM [falling, partial curve]

## COc1ccc(NC(=O)C2CCN(S(=O)(=O)c3c(C)noc3/C=C/N(C)C)CC2)cc1
  cell number change: -2.12%

## O=C(c1ccc(F)cc1)N1CCN2C(=O)c3ccccc3C12c1ccc(Cl)cc1 (stereo not drawn)
  cell number change: 22.4%

## CCCC(=O)Nc1cccc(S(=O)(=O)N(C)c2ccccc2)c1
  cell number change: 13.8%
[2]
  AC50: 20.6 µM [rising, single point]

## CC(=O)C1=C(c2ccc(Br)cc2)C(=O)c2ccccc2C1=O
  cell number change: -31.7%
[1]
  AC50: 13 µM [falling, partial curve]
[2]
  AC50: 14.6 µM [falling, partial curve]

## COc1cccc(NC(=O)CN(C)C(=O)c2cccc(S(=O)(=O)Nc3ccc(C)cc3)c2)c1
  cell number change: 18.6%
[2]
  AC50: 16.4 µM [falling, single point]

## COc1cc(CN2CCC(C(=O)N3CCN(c4ccccc4F)CC3)CC2)cc(OC)c1OC
  cell number change: -73.1%
[1]
  AC50: 29.1 µM [falling, single point]
[2]
  AC50: 5.8 µM [rising, full curve]

## O=C(CSc1nnc(-c2ccc(O)cc2)n1Cc1ccco1)N1CCc2ccccc2C1
  cell number change: -4.45%
[2]
  AC50: 6.51 µM [rising, single point]

## COc1ccc(C(=O)Nc2c(N)nc(SCC(=O)Nc3ccc(NC(C)=O)cc3)[nH]c2=O)cc1OC
  cell number change: -11%
[2]
  AC50: 16.4 µM [rising, partial curve]

## CCN(c1ccccc1)S(=O)(=O)c1ccc(OC)c(NC(=O)c2cc(Cl)ccn2)c1
  cell number change: 2.01%

## CCCc1cc2c(=O)c(-c3nc4ccccc4s3)c(COCC(=O)O)oc2cc1O
  cell number change: 14.6%
[2]
  AC50: 0.231 µM [rising, full curve, poor fit]

## N#Cc1c(Nc2ccc(F)cc2)sc(C(=O)c2ccc(F)cc2)c1N
  cell number change: -38.1%
[1]
  AC50: 29.1 µM [falling, single point]
[2]
  AC50: 29.1 µM [falling, single point]

## CN(Cc1ccccc1)S(=O)(=O)c1ccc(NS(=O)(=O)Cc2ccccc2)cc1
  cell number change: 76.3%
[1]
  AC50: 14.6 µM [rising, partial curve]
[2]
  AC50: 1.46 µM [rising, partial curve, poor fit]

## CCN(Cc1cc(=O)n2cc(Cl)c(C)c(Cl)c2n1)Cc1nc2ccccc2c(=O)[nH]1
[1]
  AC50: 4.11 µM [rising, partial curve, poor fit]

## Cc1ccc(OCC(=O)NC2CC(C)(C)NC(C)(C)C2)c(C)c1
  cell number change: 16.3%

## CCOC(=O)n1cc(C(=O)c2ccccc2O)cn1
  cell number change: 11.3%
[2]
  AC50: 11.6 µM [falling, single point]

## CCOC(=O)C1CCCN(Cc2sccc2C)C1 (stereo not drawn)
  cell number change: -25.2%
[1]
  AC50: 0.184 µM [falling, full curve, poor fit]
[2]
  AC50: 18.4 µM [falling, partial curve]

## COc1cccc(C(=O)NC(C)C(c2cccs2)N2CCN(C)CC2)c1 (stereo not drawn)
  cell number change: 31.4%
[1]
  AC50: 0.517 µM [rising, full curve, poor fit]

## CC(C)OP(=O)(c1ccc(N(C)C)cc1)C(O)c1ccncc1 (stereo not drawn)
  cell number change: 43.2%
[2]
  AC50: 23.1 µM [rising, partial curve]

## COc1cccc(NC(=O)CCC2CCN(C(=O)C3CC=CCC3)CC2)c1 (stereo not drawn)
  cell number change: -16.4%
[2]
  AC50: 29.1 µM [falling, partial curve]

## CCOc1cc(C)c(C(C)C)cc1S(=O)(=O)NCc1ccccn1
  cell number change: 71.3%
[1]
  AC50: 29.1 µM [rising, single point]
[2]
  AC50: 29.1 µM [rising, single point]

## CC(=O)c1sc(-c2ccc(Cl)cc2)cc1N
  cell number change: 32.6%
[1]
  AC50: 29.1 µM [rising, single point]
[2]
  AC50: 25.9 µM [rising, single point]

## O=C1CC(N2CCN(c3nc4ccccc4s3)CC2)C(=O)N1c1cccc(F)c1 (stereo not drawn)
  cell number change: 27.3%
[1]
  AC50: 0.517 µM [rising, full curve, poor fit]

## CC(=O)c1ccc(C(=O)N2CCC(n3nccc3NC(=O)C3CC3)CC2)cc1
  cell number change: 3.47%

## COc1ccccc1NC(=O)C(=O)NCCC1CCCCN1S(=O)(=O)c1ccc(F)cc1 (stereo not drawn)
  cell number change: -25.5%
[2]
  AC50: 29.1 µM [falling, single point]

## COC(=O)c1ccccc1SCC(=O)Nc1ccc(N2CCOCC2)cc1
  cell number change: 8.71%
[2]
  AC50: 5.8 µM [rising, single point]

## COCCN(C(=O)CSc1n[nH]c(-c2ccccc2)n1)c1c(N)n(CC(C)C)c(=O)[nH]c1=O
  cell number change: 22.9%

## Cc1cccc(NC(=O)C(=O)NNC(=O)c2ccc(C(C)(C)C)cc2)c1
  cell number change: 113%
[1]
  AC50: 20.6 µM [rising, partial curve]
[2]
  AC50: 35.5 µM [falling, partial curve]

## Cc1ccc(S(=O)(=O)N2CCN(c3ccccc3)CC2)cc1
  cell number change: -11.7%
[2]
  AC50: 1.03 µM [falling, full curve, poor fit]

## CC(Sc1nnc(C2CC2)n1C)C(=O)Nc1ccc(N2CCOCC2)cc1 (stereo not drawn)
[1]
  AC50: 0.146 µM [falling, full curve, poor fit]

## Cn1c(=O)c(C=Nc2ccccc2)c(O)c2ccccc21
  cell number change: -64.2%
[1]
  AC50: 23.1 µM [falling, single point]
[2]
  AC50: 23.1 µM [falling, partial curve]

## CCC(C(=O)NCCc1c[nH]c2ccc(C)cc12)c1ccccc1 (stereo not drawn)
  cell number change: 88%
[1]
  AC50: 29.1 µM [rising, single point]

## Cc1cc(C)cc(NC(=O)c2cccc(N3C(=O)C4C5C=CC(C5)C4C3=O)c2)c1 (stereo not drawn)
  cell number change: -52.2%
[1]
  AC50: 9.2 µM [falling, partial curve]
[2]
  AC50: 9.2 µM [falling, partial curve]

## Cn1cccc1CC(=O)N/N=C/c1cccc([N+](=O)[O-])c1
  cell number change: 71.3%
[1]
  AC50: 8.2 µM [rising, partial curve]

## CCN(CC)S(=O)(=O)c1ccc2c(c1)nc(SCc1nc3ccsc3c(=O)[nH]1)n2CC
  cell number change: 11.5%
[1]
  AC50: 3.26 µM [rising, partial curve]

## Cc1nnc(NC(=O)CSc2ccc([N+](=O)[O-])cn2)s1
  cell number change: 27.5%

## COc1ccc(CNC(=O)COc2ccc(F)cc2)cc1
  cell number change: -7.54%
[2]
  AC50: 0.58 µM [rising, single point]

## CCn1cc(C(=O)N2CCN(c3cccc(C)c3C)CC2)c(=O)c2ccc(C)nc21
  cell number change: 10.3%
[2]
  AC50: 32.6 µM [rising, partial curve, poor fit]

## COC(=O)c1[nH]c2cc(C)ccc2c1NC(=O)CN1CCN(C(=O)c2ccco2)CC1
  cell number change: -0.0052%
[2]
  AC50: 1.84 µM [rising, partial curve]

## COc1ccc(CCC(=O)OCC(=O)Nc2ccc(OC)c(OC)c2)cc1OC
  cell number change: -6.67%
[2]
  AC50: 6.51 µM [falling, single point]

## Oc1cccc(/C=N/Nc2cc(N3CCOCC3)nc(N3CCOCC3)n2)c1
  cell number change: -17.5%
[2]
  AC50: 7.31 µM [falling, partial curve]

## CC(OC(=O)C1CCC1)C(=O)Nc1cc(Cl)cc(Cl)c1 (stereo not drawn)
  cell number change: -54%
[1]
  AC50: 18.4 µM [falling, single point]
[2]
  AC50: 16.4 µM [falling, single point]
